Values quoted from earlier work in patent publication US11807906B2, “Peroxisome biomarkers in HIV disease progression and peroxisome activating drugs for HIV treatment” (priority 2017, dated 2023).
At least one compound was matched to its structure with a doubt left.

Assays:
[1] = system: flaviviruses; conditions: stimulation of peroxisome proliferator-activated receptor alpha; cited from earlier work
[2] = system: HIV-1; conditions: stimulation of peroxisome proliferator-activated receptor alpha; cited from earlier work

## CC(C)OC(=O)C(C)(C)Oc1ccc(C(=O)c2ccc(Cl)cc2)cc1 [fenofibrate]
[1]
  replication of flaviviruses in vivo: impairs replication
[2]
  replication of HIV-1 in vivo: impairs replication
